Results on 18 molecules are retold here after PMC10163288.

The list shows a part of the results.

The chains are these.
B1: il2ra_site2_2erj_normal_mot_HHH_b2_06646_af2_000000081_0001_19_36_H_._HHH_b2_06250_0001_0000200012_0000001_1 (protein)
chain: SSSSSSDAEELVRELLEEAREIEDLRELYRVLVEALRIASEFQDEEAQELILEFLEEQSSSSSSS
B2: il2ra_site2_2erj_sap_23_mot_HHH_b2_03173_af2_000000175_0001_41_57_H_._HHH_b2_04652_0001_0000800048_0000001_0_0001_af2pred_0001_af2pred (protein)
chain: SSSSSSDEEEEEVRELLEEAKRIKNLREAYEVLRRAAELALELNNPELIQLVDEVARESSSSSSS
B3: il2ra_site2_2erj_sap_19_mot_HHH_b1_07186_000000032_0001_43_57_H_._HHH_b1_03780_af2_0001_0000100003_0000001_0_0001 (protein)
chain: SSSSDETSEIADRAFELAQRLFKNGNPEEAEEVLEEAIRLLEELGDPDLAETLRALVRFTKSSSS
B4: il2ra_site1_1z92_normal_mot_HHH_b2_07744_000000167_0001_23_40_H_._HHH_b1_05017_af2_0001_0000200009_0000001_0 (protein)
chain: SSSSDEELAVELLEKAARLAAEAGDPEKAQKFLEFAIEHAEDLGDEELVEELRRLVEELGSSSSS
B5: il2ra_site1_3nfp_sap_18_mot_HHH_b2_05712_000000064_0001_1_19_H_._HHH_b2_05948_0001_0000300006_0000001_0_0001_af2pred_dldesign_0_af2pred (protein)
chain: SSSSSDPRAALERASELHTAGKYDEARALLEALLEEVTAAKRAALARFVERCLRALEKASSSSSS
B6: il2ra_site1_2b5i_normal_mot_f5ff40796168375b462bec8614a1db4a_0001_1_000000138_0001_53_65_H_._56b0b67d579d3eef2422ecd748522aa9_0001_0001_0000300038_0000001_0_af2 … (protein)
chain: SLEEIAEELRKKNPEAYKLLKMAVKLLKRLGVPEEEIEKLLLELKEKEGSLEKATKALLEYALSQ
B7: il2ra_site2_2erj_normal_mot_6bd1339e93f6fdda22195c76da45ec5d_0001_000000136_0001_37_51_H_._HHH_b2_06260_0001_0000100003_0000001_0_af2pred_0001_af2pred (protein)
chain: SSSSSEDEERVEELLEQAEEAAKRDPEKALHLLFEAMEIALKSDNEELLKLVLEVSHRIAESSSS
B8: il2ra_site2_2erj_normal_mot_HHH_b1_08185_000000063_0001_41_55_H_._HHH_b2_00974_af2_0001_0000700045_0000001_0 (protein)
chain: SSSSSSDHAEEVVRELVEELGLSEEDEEKLKESAKIALSRGADERLIERYLRLAAEDISSSSSSS
B9: il2ra_site1_3nfp_sap_14_mot_HHH_b1_01540_000000276_0001_42_56_H_._HHH_b1_07396_0001_0000200020_0000001_0_0001_af2pred_0001_af2pred_1 (protein)
chain: PAEEFLERELRRLGVPPEEIEEIREVFEKLARLATKEAFRLVDRLLQLVAKGDPEEVKKLAEEIK
B10: il2ra_site1_3nfp_sap_16_mot_HHH_b2_04095_af2_000000004_0001_43_56_H_._HHH_b1_08279_af2_0001_0000300005_0000001_0_0001_af2pred_0001_af2pred_1 (protein)
chain: SSSSTEKLERAEELIKEVRRLLREGNPEEAEKLLEEMKELAEELNDPILEQLVRIAEERIKSSSS
B11: il2ra_site2_2erj_normal_mot_c2bf78bdce995293a161f7082e24b401_0001_af2_000000082_0001_17_32_H_._HHH_b2_01340_0001_0000300055_0000001_0 (protein)
chain: SSSSSLEELYELANLVLELLYRGNPEEARKVLEQLEELAEELGSDNAREIAEWLKEHIEGSSSSS
B12: il2ra_site1_2b5i_normal_mot_HHH_b2_04910_000000118_0001_1_19_H_._HHH_b1_07294_af2_0001_0000100005_0000001_0_af2pred_dldesign_0_af2pred (protein)
chain: SSSSSSKEALELFLKANEAYQAGNYEEAKKLLEEALEKAKAAGMTALVKMIESALESLSSSSSSS
B13: il2ra_site2_2erj_normal_mot_HHH_b2_05804_000000098_0001_44_58_H_._HHH_b2_05738_af2_0001_0000100013_0000001_0 (protein)
chain: SSSSDEAWERVAELLIQALELFKEGNPEEAKELLEEAREVAEEANSPFLERYVEFARRALSSSSS
B14: il2ra_site2_3nfp_sap_23_mot_HHH_b2_07840_000000026_0001_18_34_H_._HHH_b1_06020_0001_0000700062_0000001_0_0001_af2pred_0001_af2pred (protein)
chain: SDLAKERLEEAKERGTLEEYLRELLRLSAERAGNPESATLMLLIKAELLNDPEAEELVEELAEQT
B15: il2ra_site2_3nfp_normal_mot_HHH_b2_07946_000000046_0001_20_36_H_._HHH_b2_01051_0001_0000100002_0000001_0 (protein)
chain: SSSSSDEHEEEVRELLEEAKKIDDEFERFAVLADAAAIAAQANDEELLEEVLEVSARLRHSSSSS
B16: il2ra_site2_2erj_sap_22_mot_HHH_b1_07562_000000147_0001_41_55_H_._HHH_b1_01646_0001_0000600010_0000001_0_0001 (protein)
chain: DHEEAVRRALELAAKRGNLELQVRLLLLFLERTLGDPEEALERLRELLEKLGDPEAEEVLEELRR
B17: il2ra_site2_3nfp_sap_34_mot_HHH_b1_01350_af2_000000041_0001_40_53_H_._HHH_b1_03122_0001_0000500014_0000001_0_0001 (protein)
chain: SSSSDKEEIEELLKELREALERGDEELFRKILRRVAQLIFELGDHELFAELADLLAKFAHKSSSS
B18: il2ra_site2_2erj_normal_mot_HHH_b1_04294_af2_000000096_0001_1_18_H_._HHH_b1_00002_0001_0000500019_0000001_0 (protein)
chain: SSSSDLEEAVEELEELLEEGDPEKVSKVAWELLRILHEVTDPELLRKAAEVLQEALRFIEKSSSS

This assay addresses il2ra, P01589. Description: yeast display titration.
Consider B1, for which the “apparent Kd” value is “inactive: no binding seen”. Take B2: the “apparent Kd” value is “inactive: no binding seen”.

Regarding B3, the “apparent Kd” value was “inactive: no binding seen”. Consider B4, for which the “apparent Kd” value was “inactive: no binding seen”. Next, B5: “inactive: no binding seen”; B6: “inactive: no binding seen”. With B7 the entry was “inactive: no binding seen”. Next, B8: “inactive: no binding seen”; B9: “inactive: no binding seen”. For B10, the “apparent Kd” value is “inactive: no binding seen”. As for B11, the “apparent Kd” value is “inactive: no binding seen”.

B12: the “apparent Kd” value was “inactive: no binding seen”. Next, B13: “inactive: no binding seen”; B14: “inactive: no binding seen”. Next, B15: “inactive: no binding seen”.

As for B16, the “apparent Kd” value is “inactive: no binding seen”. Consider B17, for which the “apparent Kd” value is “inactive: no binding seen”.

B18: the “apparent Kd” value is “inactive: no binding seen”.
